# Laboratory results from the supplement of paper PMC10689618.
# Some of the results follow. Many values rest on one well or one pass, so single values are uncertain.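 Primary human fetal astrocytes engulfed labelled rat cortical synaptosomes, measured as a red/green ratio corrected for calcein live-cell signal and scaled to the plate median. Toxicity meant calcein falling over 30%; decreased phagocytosis meant below 70% of median above 5 µM.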
# System: Human fetal astrocytes
# Experiment: loss of total cells relative to no-compound high-control median (toxicity); higher = more toxic (fewer cells)
# Conditions: 11.11 µM; 24 h
row,SMILES,loss of total cells [%]
1,C[C@@H]1CC[C@@]2(OC1)O[C@H]1C[C@H]3[C@@H]4CC[C@H]5C[C@@H](O)CC[C@]5(C)[C@H]4CC[C@]3(C)[C@H]1[C@@H]2C,2.6
2,c1coc(CNc2ncnc3[nH]cnc23)c1,2.9
3,OC(c1cc(C(F)(F)F)nc2c(C(F)(F)F)cccc12)C1CCCCN1 (centres undefined),16.7
4,Oc1c(Cl)cc(Cl)c(Cl)c1Cc1c(O)c(Cl)cc(Cl)c1Cl,49.9
5,O=C(O)CCCC[C@@H]1SC[C@@H]2NC(=O)N[C@@H]21,-0.3
6,O=c1cc(-c2ccc(O)c(O)c2)oc2cc(O)cc(O)c12,31.8
7,CCC(CCC(C)C1CCC2C3CCC4CC(O)CCC4(C)C3CCC12C)C(C)C (centres undefined),16.2
8,Nc1nc(=S)c2ncn([C@@H]3O[C@H](CO)[C@@H](O)[C@H]3O)c2[nH]1,11.3
9,C=CC(C1=CC(=O)C(OC)=CC1=O)c1ccc(O)cc1 (centres undefined),54.2
10,O=C1C(CC[S+]([O-])c2ccccc2)C(=O)N(c2ccccc2)N1c1ccccc1 (centres undefined),-11.2
11,CN1CCCN=C1/C=C/c1cccc(O)c1,1.9
12,O=C(O)c1ccc(S(=O)(=O)N(Cl)Cl)cc1,3.2
13,COc1ccc(-c2cc(=O)c3c(OC)c(OC)c(OC)c(OC)c3o2)cc1,20.3
14,COc1ccc2oc(-c3ccccc3)c(OC)c(=O)c2c1,3.4
15,CN1CCc2c(c3ccccc3n2Cc2ccccc2)C1,-11.3
16,CC[C@@]1(O)C(=O)OCc2c1cc1n(c2=O)Cc2cc3c(CN(C)C)c(O)ccc3nc2-1,-18
17,N=C(N)NCCN1CCCCCCC1,-22.2
18,N[C@@H](COCc1ccccc1)C(=O)O,2
19,CCOC(=O)[C@H](CCc1ccccc1)N[C@@H](C)C(=O)N1CCC[C@H]1C(=O)O,-20.3
20,COC(=O)C[C@H]1C(C)(C)[C@@H](O)[C@@H]2CC3=C4C=C(OC)O[C@@H](c5ccoc5)[C@]4(C)CCC3[C@@]1(C)C2=O (stereo partly drawn) [3-DEOXO-3beta-HYDROXYMEXICANOLIDE 16-ENOL ETHER],-1.9

row,SMILES,loss of total cells [%]
1,CN1CCN(C(c2ccccc2)c2ccccc2)CC1,-2.6
2,N[C@@H](CCC(=O)N[C@@H](CSC(CC(=O)O)C(=O)O)C(=O)NCC(=O)O)C(=O)O (some centres undefined),14.6
3,Cc1ccc(S(=O)(=O)NC(=O)NN2CC3CCCC3C2)cc1 (centres undefined),17.2
4,CC[C@H]1OC(=O)C[C@@H](O)[C@H](C)[C@@H](O[C@@H]2O[C@H](C)[C@@H](O)[C@H](N(C)C)[C@H]2O)[C@@H](CCN2C[C@H](C)C[C@H](C)C2)C[C@@H](C)C(=O)/C=C/C(C)=C/[C@@H]1CO[C@@H]1O[C@H](C)[C@@H](O)[C@@H](OC)[C@H]1OC,-21.3
5,Nc1ccccc1S(N)(=O)=O,10.5
6,O=c1c(O)cc([C@H]2Oc3cc(O)cc(O)c3C[C@H]2O)cc2c([C@H]3Oc4cc(O)cc(O)c4C[C@H]3O)cc(O)c(O)c12,26.5
7,Cc1nc(C)c(Cl)c(O)c1Cl,34.4
8,CC(=O)O[C@H]1CC[C@]2(C)[C@H]3CC=C4[C@@H]5CC(C)(C)CC[C@]5(C)CC[C@@]4(C)[C@]3(C)CC[C@H]2C1(C)C [beta-AMYRIN ACETATE],14.2
9,C#C[C@]1(OC(C)=O)CC[C@H]2[C@@H]3CCC4=C[C@@H](OC(C)=O)CC[C@@H]4[C@H]3CC[C@@]21C,1.3
10,CC(CCC(=O)O)[C@H]1CCC2C3CC[C@@H]4CC(=O)CC[C@]4(C)C3C=C[C@@]21C (some centres undefined),4.7
11,CCOC(=O)[N-]c1c[n+](N2CCOCC2)no1 [Molsidomine],-9.5
12,CN(C(=O)CN(CCO)CC(=O)N(C)C(C)(C)Cc1ccccc1)C(C)(C)Cc1ccccc1,43
13,COc1ccc(CN(CCN(C)C)c2ncccn2)cc1,45.6
14,C[N+](C)(C)CCOP(=O)(O)OP(=O)([O-])OC[C@H]1O[C@@H](n2ccc(N)nc2=O)[C@H](O)[C@@H]1O,23.3
15,OC[C@H]1O[C@@](CO)(O[C@H]2O[C@H](CO)[C@@H](O)[C@H](O)[C@H]2O)[C@@H](O[C@H]2O[C@H](CO)[C@@H](O)[C@H](O)[C@H]2O)[C@@H]1O,4.7
16,CC(C)/C(O)=C1/C(=O)O[C@@H](c2ccoc2)[C@]2(C)C(O)[C@@H](O)[C@@]34OC5(C)OC67CC(C)(C(O)[C@]6(O)[C@@H](O)[C@]3(O5)C12)[C@H](CC(=O)O)[C@]74C (some centres undefined),-0.6
17,CCN1CCCC(OC(=O)C(c2ccccc2)c2ccccc2)C1 (centres undefined),-3
18,Cc1cc(C)nc(NS(=O)(=O)c2ccc(N)cc2)n1,6.6
19,C=C1C(=O)[C@]23[C@H](CC[C@@H]1[C@@H]2O)[C@]12CO[C@@]3(O)[C@H](O)[C@H]1C(C)(C)CC[C@@H]2O,25

# 3 entries picked at random from the list so far, as already listed:
row,SMILES,loss of total cells [%]
14,COc1ccc2oc(-c3ccccc3)c(OC)c(=O)c2c1,3.4
14,C[N+](C)(C)CCOP(=O)(O)OP(=O)([O-])OC[C@H]1O[C@@H](n2ccc(N)nc2=O)[C@H](O)[C@@H]1O,23.3
9,C=CC(C1=CC(=O)C(OC)=CC1=O)c1ccc(O)cc1 (centres undefined),54.2
